Experimental data published in the supplement of paper PMC7877785.
± gives the uncertainty stated by the source. Many entries were measured with a wide error.

Test: self-splicing fitness, log relative to wild type (ln ratio); higher = more splicing; Tetrahymena group I intron in knt gene, E. coli kanamycin selection, DiMSum; sequences stand for … in CUCUCU…GGAGGGAAAAGUUAUCAGGCAUGCACCUGGUAGCUAGUCUUUAAACCAAUAGAUUGCAUCGGUUUAAAAGGCAAGACCGUCAAAUUGCGGGAAAGGGGUCAACAGCCGUUCAGUACCAAGUCUCAGGGGAAACUUUGAGAUGGCCUUGCAAAGGGUAUGGUAAUAAGCUGACGGACAUGGUCCUAACCACGCAGCCAAGUCCUAAGUCAACAGAUCUUCUGUUGAUAUGGAUGCAGUUCACAGACUAAAUGUCGGUCGGGGAAGAUGUAUUCUUCUCAUAAGAUAUAGUCGGACCUCUCCUUAAUGGGAGCUAGCGGAUGAAGUGAUGCAACACUGGAGCCGCUGGGAACUAAUUUGUAUGCGAAAGUAUAUUGAUUAGUUUUGGAGUACUCGUGGUCG
How it was run: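 A randomised library covering all eight P1ex-region intron nucleotides was built with the intron in the knt kanamycin-resistance gene on pET-22b(+) and held in E. coli BL21(DE3). Cells were grown overnight at 37°C or 30°C on LB agar, with or without 25 μg/mL kanamycin, plus 100 μg/mL carbenicillin, 50 μM IPTG and 0.2% rhamnose, and pooled colonies were amplicon-sequenced on an Illumina HiSeq 2500. DiMSum fitness is the error-weighted combination of wild-type-normalised replicate fold changes, kanamycin versus none.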

CGUGAGCAAUAUUACGAAAA
self-splicing fitness (ln) (30 °C): -4.6 ± 1 | self-splicing fitness (ln) (37 °C): -2.88 ± 0.43

UAAGAGCAAUAUUACGCCAG
self-splicing fitness (ln) (30 °C): -4.29 ± 1.1 | self-splicing fitness (ln) (37 °C): -2.28 ± 0.63

GAGGAGCAAUAUUACGCAUA
self-splicing fitness (ln) (37 °C): 1.5 ± 1.1

GUCGAGCAAUAUUACGUCGG
self-splicing fitness (ln) (30 °C): -4.85 ± 1

AGAAAGCAAUAUUACGGAAG
self-splicing fitness (ln) (30 °C): -2.64 ± 0.19 | self-splicing fitness (ln) (37 °C): -1.71 ± 0.22

UCCUAGCAAUAUUACGAACC
self-splicing fitness (ln) (30 °C): -3.29 ± 0.5 | self-splicing fitness (ln) (37 °C): -1.96 ± 0.67

CAUGAGCAAUAUUACGAACC
self-splicing fitness (ln) (37 °C): -0.902 ± 0.52

GAGGAGCAAUAUUACGGCAU
self-splicing fitness (ln) (30 °C): -2.46 ± 0.8

CAUGAGCAAUAUUACGUCAG
self-splicing fitness (ln) (30 °C): -1.35 ± 0.095 | self-splicing fitness (ln) (37 °C): -1.13 ± 0.12

GGUGAGCAAUAUUACGUCCC
self-splicing fitness (ln) (37 °C): -1.54 ± 0.58

CUUAAGCAAUAUUACGAAAC
self-splicing fitness (ln) (30 °C): -3.58 ± 1 | self-splicing fitness (ln) (37 °C): -2.09 ± 0.65

AGUGAGCAAUAUUACGGAAC
self-splicing fitness (ln) (37 °C): -2.94 ± 0.54

UCCUAGCAAUAUUACGACAA
self-splicing fitness (ln) (30 °C): -3.57 ± 1

UUUCAGCAAUAUUACGGACC
self-splicing fitness (ln) (37 °C): -0.096 ± 0.58

GCAGAGCAAUAUUACGGUCU
self-splicing fitness (ln) (30 °C): -3.54 ± 0.25 | self-splicing fitness (ln) (37 °C): -2.39 ± 0.27

CAAAAGCAAUAUUACGAAAC
self-splicing fitness (ln) (30 °C): -4.17 ± 0.39 | self-splicing fitness (ln) (37 °C): -3.75 ± 0.33

AAUAAGCAAUAUUACGUAAC
self-splicing fitness (ln) (30 °C): -3.86 ± 0.54

ACUGAGCAAUAUUACGAAAA
self-splicing fitness (ln) (30 °C): -2.91 ± 1.1

AGUCAGCAAUAUUACGGACC
self-splicing fitness (ln) (30 °C): -1.64 ± 0.74 | self-splicing fitness (ln) (37 °C): -0.685 ± 0.82

GUUAAGCAAUAUUACGUAAC
self-splicing fitness (ln) (37 °C): -2.23 ± 0.56

AUGGAGCAAUAUUACGAGAA
self-splicing fitness (ln) (30 °C): -1.02 ± 0.63

CUUAAGCAAUAUUACGACCC
self-splicing fitness (ln) (30 °C): -2.36 ± 1.2 | self-splicing fitness (ln) (37 °C): -1.13 ± 1.2

UUCCAGCAAUAUUACGCCGC
self-splicing fitness (ln) (30 °C): -2.6 ± 0.63 | self-splicing fitness (ln) (37 °C): -2.9 ± 0.75

GGGUAGCAAUAUUACGUCCU
self-splicing fitness (ln) (30 °C): -2.93 ± 0.63 | self-splicing fitness (ln) (37 °C): -3.25 ± 1

ACAGAGCAAUAUUACGAGAC
self-splicing fitness (ln) (30 °C): -3.23 ± 0.37 | self-splicing fitness (ln) (37 °C): -2.67 ± 0.31

CCCGAGCAAUAUUACGUGGG
self-splicing fitness (ln) (30 °C): -3.97 ± 0.19 | self-splicing fitness (ln) (37 °C): -2.79 ± 0.19

AGUGAGCAAUAUUACGUGUC
self-splicing fitness (ln) (30 °C): -3.88 ± 0.6 | self-splicing fitness (ln) (37 °C): -2.2 ± 0.64

GACAAGCAAUAUUACGCUAG
self-splicing fitness (ln) (30 °C): -2.28 ± 0.081 | self-splicing fitness (ln) (37 °C): -1.36 ± 0.089

UUUGAGCAAUAUUACGUCAC
self-splicing fitness (ln) (30 °C): -2.81 ± 0.62 | self-splicing fitness (ln) (37 °C): -0.687 ± 0.53

CGUGAGCAAUAUUACGGCAC
self-splicing fitness (ln) (30 °C): -3.19 ± 1.2 | self-splicing fitness (ln) (37 °C): -2.39 ± 1.1

AACGAGCAAUAUUACGAGAC
self-splicing fitness (ln) (37 °C): -0.98 ± 0.77

UAAGAGCAAUAUUACGGAGC
self-splicing fitness (ln) (37 °C): -3.69 ± 1

UAUAAGCAAUAUUACGCUAA
self-splicing fitness (ln) (30 °C): -0.69 ± 0.54 | self-splicing fitness (ln) (37 °C): -2.34 ± 0.62

UCCAAGCAAUAUUACGCGGC
self-splicing fitness (ln) (30 °C): -2.74 ± 0.23 | self-splicing fitness (ln) (37 °C): -2.94 ± 0.23

UUUGAGCAAUAUUACGCGCU
self-splicing fitness (ln) (30 °C): -5.13 ± 1 | self-splicing fitness (ln) (37 °C): -2.32 ± 0.63

GUAAAGCAAUAUUACGACAC
self-splicing fitness (ln) (30 °C): 0.603 ± 0.098 | self-splicing fitness (ln) (37 °C): 0.696 ± 0.12

CUCUAGCAAUAUUACGCGCC
self-splicing fitness (ln) (37 °C): -1.56 ± 0.61

UUCCAGCAAUAUUACGCUAC
self-splicing fitness (ln) (30 °C): -3.97 ± 0.75 | self-splicing fitness (ln) (37 °C): 0.608 ± 0.79

GCGGAGCAAUAUUACGGCGC
self-splicing fitness (ln) (37 °C): -1.44 ± 0.59

CUUAAGCAAUAUUACGAGCC
self-splicing fitness (ln) (30 °C): -4.96 ± 0.72

CAAUAGCAAUAUUACGACCC
self-splicing fitness (ln) (30 °C): -0.828 ± 1

GUCUAGCAAUAUUACGGAGA
self-splicing fitness (ln) (30 °C): -3.18 ± 0.6 | self-splicing fitness (ln) (37 °C): -2.81 ± 0.62

UCGCAGCAAUAUUACGCCAU
self-splicing fitness (ln) (30 °C): -3.46 ± 0.53

UCGGAGCAAUAUUACGACGU
self-splicing fitness (ln) (30 °C): -3.43 ± 1 | self-splicing fitness (ln) (37 °C): 0.614 ± 0.85

CUAGAGCAAUAUUACGUAUA
self-splicing fitness (ln) (37 °C): -2.5 ± 0.53

UUCAAGCAAUAUUACGCUUC
self-splicing fitness (ln) (30 °C): -3.09 ± 0.22 | self-splicing fitness (ln) (37 °C): -2.8 ± 0.44

CUCAAGCAAUAUUACGCAAG
self-splicing fitness (ln) (30 °C): -5.46 ± 1

GAGCAGCAAUAUUACGAACC
self-splicing fitness (ln) (30 °C): -0.844 ± 0.5 | self-splicing fitness (ln) (37 °C): 0.0981 ± 1.2

CCAUAGCAAUAUUACGUAAC
self-splicing fitness (ln) (30 °C): -4.77 ± 0.59

GGAGAGCAAUAUUACGUAUG
self-splicing fitness (ln) (30 °C): -3.12 ± 0.76 | self-splicing fitness (ln) (37 °C): -3.28 ± 0.52

GGCGAGCAAUAUUACGAGAG
self-splicing fitness (ln) (30 °C): -3.79 ± 0.39 | self-splicing fitness (ln) (37 °C): -2.54 ± 0.33

CUUUAGCAAUAUUACGAAUU
self-splicing fitness (ln) (30 °C): -4.16 ± 0.72

GCCGAGCAAUAUUACGAUCC
self-splicing fitness (ln) (30 °C): -0.829 ± 0.68 | self-splicing fitness (ln) (37 °C): -0.785 ± 0.93

AUGUAGCAAUAUUACGCCAC
self-splicing fitness (ln) (37 °C): -1.7 ± 0.8

GGUGAGCAAUAUUACGUGUU
self-splicing fitness (ln) (30 °C): -5.04 ± 0.58

AUCGAGCAAUAUUACGUAAC
self-splicing fitness (ln) (37 °C): -2.18 ± 1.1
